# Results published in PubChem BioAssay AID2685 (National Center for Advancing Translational Sciences (NCATS), 2010).
# Some of the results follow. Shown are side measurements of this screen, not its main read-out; they come without a call. The list favours compounds with an active or inconclusive main result. The note in brackets gives the kind of curve behind each potency; many fits are weak.
# Assay: qHTS Assay for Lipid Storage Modulators in Drosophila S3 Cells;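 on cell number change: cells counted by Cell Tracker Red CMTPX staining in the red channel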
# Conditions: BODIPY lipid droplet fluorescence, 18-24 h; for cell number change: measured here: cell count max response, cells fed with added oleic acid
# Summary of the method: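 Laser-scanning cytometry quantifies lipid droplet accumulation (500–530 nm total intensity; droplet/cell object ratio) in oleic acid-fed (400 uM added) Drosophila S3 cells treated with a concentration series. 20 uM Triacsin C defined 100% inhibition.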
# [1] = measured here: cell number channel AC50, cells fed with added oleic acid
# [2] = measured here: lipid fluorescence (Fed channel) AC50, cells fed with added oleic acid
Structure (SMILES),cell number change [%],AC50 [1],AC50 [2]
O=C(NNC(=O)C1CCN(Cc2ccccc2)CC1)c1cccs1,-13.1,"0.0058 µM [falling, full curve, poor fit]",–
COc1ccc(Cn2c(CCC(=O)Nc3ccccc3)nc3cccnc32)cc1,-38.8,"16.4 µM [falling, single point]","0.461 µM [rising, full curve, poor fit]"
CCCc1nc2ccccc2n1CCOc1ccccc1,-10.5,–,"0.291 µM [rising, partial curve, poor fit]"
Cc1cccc(NC(=O)CN2CCN(C(=O)C3CCN(C(=O)/C=C/c4ccccc4)CC3)CC2)c1C,-11.3,–,"3.26 µM [falling, single point]"
Cc1ccc(S(=O)(=O)N2CCN(C(=O)CSC(=S)N3CCCC3)CC2)c(C)c1,-18.3,–,"6.51 µM [falling, single point]"
COc1ccc(CNC(=O)C2=C(C)C(=O)OC23CCC(C)CC3)cc1 (stereo unspecified),–,"0.651 µM [rising, single point]","0.58 µM [rising, single point]"
CCCNC1=CC(=O)CC(C)(C)C1,21,–,"0.0058 µM [rising, full curve, poor fit]"
O=c1c2ccccc2ncn1CCCSc1ccc(Cl)cc1,25.3,–,–
COC(=O)C1=C(C)N(CCCC(=O)O)C(=O)NC1c1ccc(-c2ccccc2)cc1 (stereo unspecified),10,–,"5.8 µM [falling, partial curve]"
Cc1cc2occ(CC(=O)N(C)CC(=O)Nc3ccccc3Cl)c2cc1C,51,–,"29.1 µM [rising, single point]"
O=C(O)c1cnn2c(C(F)(F)F)cc(-c3ccccc3)nc12,–,"0.92 µM [rising, full curve, poor fit]","0.731 µM [rising, partial curve]"
CC(=O)Nc1ccc(S(=O)(=O)Nc2cccc(-n3c(C)nc4ccccc4c3=O)c2)cc1,–,–,"6.51 µM [rising, single point]"
CC(=O)Nc1ccc2c(c1)C(=O)c1ccccc1C2=O,-25.4,–,"5.17 µM [falling, full curve, poor fit]"
Cc1ccc(S(=O)(=O)N2CCCOC2CNC(=O)C(=O)NCc2ccncc2)cc1 (stereo unspecified),77.9,"0.651 µM [rising, full curve]","3.66 µM [rising, full curve]"
CC(=O)c1cccc(NC(=O)N2CCc3ccccc3C2)c1,-13.7,–,"1.16 µM [falling, single point]"
CCOC(=O)Cc1c(C)[nH]n(-c2ccccc2)c1=O,-7.79,–,"0.231 µM [falling, full curve, poor fit]"
O=C1NC(=S)N/C1=C/c1ccc(-c2c(Br)cc([N+](=O)[O-])cc2Br)o1,–,–,"29.1 µM [falling, single point]"
COCCn1c(SCC(=O)N2CCCCCC2)nnc1-c1ccco1,9.21,–,–

# By substructure: the compounds so far containing an aryl thioether with sulfur outside any ring.
Structure (SMILES),cell number change [%],AC50 [1],AC50 [2]
O=c1c2ccccc2ncn1CCCSc1ccc(Cl)cc1,25.3,–,–
COCCn1c(SCC(=O)N2CCCCCC2)nnc1-c1ccco1,9.21,–,–

# Following part.

Structure (SMILES),cell number change [%],AC50 [1],AC50 [2]
CCOC(=O)[C@H]1[C@H]2COc3ccc(Cl)cc3[C@@H]2N2C(=O)c3cc(F)c(F)cc3NC(=O)[C@@]12C,-37.8,"9.2 µM [falling, partial curve]","23.1 µM [falling, single point]"
O=C(CCN1C(=O)/C(=C/c2cccs2)SC1=S)Nc1cccc(O)c1,-4.17,–,"0.517 µM [falling, single point]"
CCOC(=O)N1CCN(C(=O)CS(=O)(=O)c2cn(Cc3ccccc3Cl)c3ccccc23)CC1,–,–,"29.1 µM [rising, single point]"
CC(OC(=O)c1ccc2c(c1)S(=O)(=O)c1ccccc1C2=O)C(N)=O (stereo unspecified),-4.05,–,"29.1 µM [rising, single point]"
COc1ccc(OCCCC(=O)NC(C)c2ccccc2)cc1 (stereo unspecified),–,"0.517 µM [falling, single point]","6.51 µM [falling, single point]"
CCn1c(Cc2ccc(OC)cc2)nnc1SCc1nc2ccccc2c(=O)[nH]1,–,"2.91 µM [rising, partial curve]","0.366 µM [rising, full curve]"
CN(C)c1cccc2c1c(NC(=O)c1ccc(Cl)cc1)nn2C,6.03,–,"2.06 µM [rising, full curve]"
CCc1c(C)c2ccc(OCC(=O)N(C)C)c(C)c2oc1=O,46.6,"4.11 µM [rising, partial curve, poor fit]","0.103 µM [rising, single point]"
CCN(CC)c1ccc(NC(=O)c2c(C)noc2C)cc1,31.8,"0.517 µM [rising, partial curve, poor fit]","0.82 µM [rising, full curve, poor fit]"
Cc1nn(CC(=O)Nc2cccc(S(N)(=O)=O)c2)c(C)c1[N+](=O)[O-],-18.1,"7.31 µM [falling, single point]",–
COc1cccc(C(=O)NC(=S)Nc2ccccc2N2CCOCC2)c1,-23.8,–,"2.06 µM [falling, full curve, poor fit]"
Cc1cc(C)c2nc(NNC(=O)c3cc(=O)c4ccccc4o3)sc2c1,0.393,–,–
COc1ccc(N(C(=O)c2snc(C(N)=O)c2N)C(C(=O)NC2CCCC2)c2cc(OC)ccc2OC)cc1 (stereo unspecified),7.5,–,"0.58 µM [rising, single point]"
Cc1ccc(CN(C)C(=O)COc2ccc(S(=O)(=O)N3CCCC3)cc2[N+](=O)[O-])c(C)c1,-3.82,"0.164 µM [falling, full curve, poor fit]","0.164 µM [falling, full curve, poor fit]"
CCOc1cc(/C=N/NC(=O)CCc2n[nH]c(=O)[nH]c2=O)ccc1O,32.8,"0.164 µM [rising, partial curve, poor fit]","29.1 µM [rising, single point]"
CCOc1ccccc1OCCOCCN1CCN(Cc2ccccc2)CC1,-33.6,"18.4 µM [falling, single point]",–
COc1ccc(C(=O)Nc2cc(C)nn2-c2nc3ccccc3[nH]2)c(OC)c1,-24.3,–,"0.58 µM [rising, full curve, poor fit]"
